Not every detail of the peptide structures is certain; ends, links or a residue may be inferred. Ends that are not written are not given here.
Key:
[1] = system: male Wistar rats; experiment: Functional PET of 18F-2-deoxyglucose uptake after SC TCAP-1; type: in vivo, rat; conditions: single SC 3000 pmol/kg
[2] = system: diabetic GK male rats; experiment: Blood/plasma glucose after TCAP-1 in Type II diabetic Goto-Kakizaki rats; type: in vivo, rat
[3] = system: normal Wistar rats; experiment: Plasma insulin and glucagon after TCAP-1 in normal Wistar rats; type: in vivo, rat; conditions: 1 week; for reduction of plasma insulin: normal Wistar rats
[4] = system: Goto-Kakizaki rats; experiment: Plasma insulin and glucagon after TCAP-1 in Goto-Kakizaki rats; type: in vivo, rat; conditions: 1 week
[5] = system: Hypo-E38 cells; experiment: Glucose uptake and glucose-6-phosphate in Hypo-E38 cells; type: cell-based, mouse
[6] = system: GLUT3; experiment: GLUT3 immunoreactivity in Hypo E38 cells; type: cell-based, mouse
[7] = system: TOM20; experiment: Mitochondrial activation markers (TOM20, hexokinase) in N38 hypothalamic cells; type: cell-based, mouse
[8] = system: mHypoE-38 neurons; experiment: Intracellular lactate in mHypoE-38 neurons; type: cell-based, mouse; conditions: for decrease in lactate production: N38 cells
[9] = system: N38 cells; experiment: ATP production in N38 cells; type: cell-based, mouse
[10] = system: C2C12 myocytes; experiment: 3H-2-deoxyglucose uptake in C2C12 myocytes; type: cell-based, mouse
Description: The effect of TCAP-1 on glucose uptake in muscle cells was examined in a C2C12 mouse myocyte cell line. C2C12 myocytes were cultured in Dulbecco's Modified Eagle Medium (DMEM) containing 4500 mg/L D-glucose, L-glutamine, and 25 mM HEPES buffer, without sodium pyruvate or phenol red (Gibco, Cat. No. 21063029), supplemented with 20% heat-inactivated fetal bovine serum (FBS), 100 U/ml penicillin and 100 μg/ml streptomycin. Cells were maintained at 80% confluency at 37° C. in a humidified CO2 incubator. To initiate differentiation, myocytes were further cultured in DMEM supplemented with 10% heat-inactivated horse serum (HS), transferrin, 100 U/ml penicillin and 100 μg/ml streptomycin. Myocytes were allowed to differentiate into multi-nucleated myotubes for 5 days before experimentation. 24 hours prior to experimentation, medium was changed. At day 5 of differentiation, cells were deprived of serum and incubated in Minimal Essential Medium containing 1000 mg/L D-glucose, L-glutamine, without nucleosides (Gibco, Cat. No. 12561049) for 5 hours at 37° C. prior to incubation with insulin, TCAP-1, or saline. Cells were washed twice in glucose-free HEPES-buffered solution (HBS), containing 140 mM NaCl, 20 mM HEPES, 5 mM KCl, 2.5 mM MgSO4 and 1 mM CaCl2, followed by determinations of transport of 3H-2-deoxyglucose for 10 minutes at 0.5 μCi/ml at room temperature. Uptake of 3H-2-deoxyglucose was stopped immediately after 10 minutes with three washes of ice-cold 0.9% NaCl solution. Parallel experiments with 5 μM of cytochalasin B were done to ensure that glucose uptake was of transporter-inhibitable transport The cells were digested with 1 ml of 0.05 N NaOH. Cell lysates were used for determination of radioactivity by a beta liquid scintillation counter. Experiments were repeated three times with 3 wells per condition per replication. C2C12 myocytes were cultured in Dulbecco's Modified Eagle Medium (DMEM) containing 4500 mg/L D-glucose, L-glutamine, and 25 mM HEPES buffer, without sodium pyruvate or phenol red (Gibco, Cat. No. 21063029), supplemented with 20% heat-inactivated fetal bovine serum (FBS), 100 U/ml penicillin and 100 μg/ml streptomycin. Cells were maintained at 80% confluency at 37° C. in a humidified CO2 incubator. Protocol for cell passage described above. Protocols for the seeding of cells for various experimental purposes were followed as in section 2.2.1. To initiate differentiation, myocytes were further cultured in DMEM supplemented with 10% heat-inactivated horse serum (HS), transferrin, 100 U/ml penicillin and 100 μg/ml streptomycin. […] Cell lysates were used for determination of radioactivity by a beta liquid scintillation counter. […]

[11] = system: ERK; experiment: ERK phosphorylation western blot in C2C12 myocytes; type: cell-based, mouse
[12] = system: Mature male rats; experiment: Sucrose preference test; type: in vivo, rat
[13] = system: Mature male rats; experiment: Forced swim test; type: in vivo, rat
[14] = system: AMPK; experiment: AMPK pathway activation in C2C12 myocytes; type: cell-based, mouse; conditions: preliminary studies (data not shown)
[15] = system: mHypoE-38 neurons; conditions: chronic 100 nM treatment for 3-12 hours (Xu, 2012); cited from earlier work

## QQLLGTGRVQGYDGYFVLSVEQYLELSDSANNIHFMRQSEI-NH2 (C-terminus assumed) [TCAP-1]
[1]
  F2DG uptake in sympathetic ganglia, heart and bladder vs vehicle and scrambled TCAP: no significant differences
[1]; 3 days post injection
  increase of F2DG uptake in cortical regions: about 25%
  increase of F2DG uptake in subcortical regions: about 25%
  overall uptake of F2DG (total brain) over the controls: ~35%
[1]; after 3 hours
  F2DG uptake into the brain: not significant but showed similar trends
[2]; GK rats, 10 nmole/kg, day 4 of week 1 (FIG. 2C)
  plasma glucose relative to vehicle: significantly decreases plasma glucose levels by day 4 of week 1
[2]; GK rats, 10 nmole/kg, week following day 4
  plasma glucose levels in the following week: returned to initial values
[2]; Goto-Kakizaki rats, after one week (FIG. 3D)
  reduction of plasma glucose: about 35%
[3]; high concentration (10 nmole/kg)
  reduction of plasma insulin: 50%
[3]; low concentration (1 nmole/kg)
  reduction of plasma insulin: 45%
[3]; normal animals, 10 nmol dose
  increase of glucagon concentration: 100%
[4]
  decrease of insulin concentrations vs vehicle: about 40%
  increase of glucagon levels over vehicle: about 38%
[5]; Hypo-E38 cells (FIG. 11A)
  amount of glucose uptake: no significant differences
[5]; Hypo-E38 cells, 10 nM
  increase of intracellular G6P concentrations: 150%
[6]; 1 h following TCAP-1 treatment
  increase in GLUT3 immunoreactivity in the cytoplasm: 25%
[6]; 3 h following TCAP-1 treatment
  increase in GLUT3 immunoreactivity in the cytosol: 40%
[6]; over 2 hours (FIG. 11L)
  GLUT3 immunoreactivity in growth cones of extending neurites: uptake of GLUT3 immunoreactivity in growth cones of extending neurites
[6]; over 3 hours (FIG. 11J)
  GLUT3 presence in the membrane regions: increased
[7]; N38 cells, after 3 hours of treatment
  TOM20 expression (mitochondrial activation marker): upregulated
[7]; mHypoE-38 neurons, 1-2 hours of treatment
  Hexokinase II immunoreactivity: an increase in Hexokinase II immunoreactivity
[8]; 1 nmole
  decrease in lactate production: about 20%
[8]; 10 nmoles
  decrease in lactate production: 25%
[8]; 100 nmoles
  decrease in lactate production: 40%
[8]; acute 100 nM treatment
  intracellular lactate concentrations vs vehicle: no significant changes
[9]; 1 nmole concentration
  increase in ATP production: 18%
[9]; 10 nmoles
  increase in ATP production: 25%
[9]; 100 nmoles
  increase in ATP production: about 40%
[10]; 100 nM, 90 minutes
  3H-2-deoxyglucose uptake: 209.702±40.436%
[10]; 100 nM, after 30 minutes
  3H-2-deoxyglucose uptake: 329.124±10.817%
[10]; 100 nM, at 60 minutes
  glucose uptake level: returned to baseline
[10]; C2C12 myocytes vs mHypoE-38 neurons
  magnitude of increase in uptake compared to the uptake in neurons: 2-3 fold
[11]; 100 nM at 0, 1, 5, 10 and 15 minutes
  ERK phosphorylation: no significant change in ERK phosphorylation
[11]; 1 minute of treatment at both 1 nM and 100 nM
  activation of the MEK-ERK1/2 pathway (p-ERK): does not activate the MEK-ERK1/2 pathway
[12]; high sucrose preference group
  sucrose preference: not significant change in sucrose preference
[12]; low sucrose preference group
  sucrose preference: significant increase in sucrose preference
[13]
  immobility time: decreasing immobility time
  swimming and climbing behaviour: increased swimming and climbing behaviour
[14]
  activation of the AMPK pathway: does not activate the AMPK pathway
[15]
  intracellular lactate: decreased intracellular lactate in a dose-dependent fashion

Reference: US10617736B2, “Method for modulating insulin-independent glucose transport using teneurin C-terminal associated peptide (TCAP)” (priority 2014, dated 2020)
